Experimental findings from paper PMC6888122 are described below.

The test concerns the target HA-HUNK (Hormonally Upregulated Neu-associated Kinase), wildtype. Description: co-IP; 293T cells co-transfected with HA-HUNK and one Beclin-1 complex member each; HUNK immunoprecipitated with anti-HA antibody on resin, lysates rotated overnight at 4 °C, beads washed 3-4 times in lysis buffer (50 mM Tris-HCl pH 7.5, 150 mM NaCl, 1 mM EDTA, 1% Triton X-100); partners detected by anti-Flag or anti-GFP immunoblot and by antibodies to each member. (In general: In western blotting, separated proteins are transferred to a membrane and probed.)

Results are given in words; binding and its absence hold for the method and conditions named. In cells and extracts the contact can be indirect. Binding can be weak; no strength is given. Where a sequence is shown, tags or fusion partners need not be part of it.

B1: Flag-Rubicon, wildtype (protein, UniProt Q92622 1-972)
chain: MRPEGAGMELGGGEERLPEESRREHWQLLGNLKTTVEGLVSTNSPNVWSKYGGLERLCRDMQSILYHGLIRDQACRRQTDYWQFVKDIRWLSPHSALHVEKFISVHENDQSSADGASERAVAELWLQHSLQYHCLSAQLRPLLGDRQYIRKFYTDAAFLLSDAHVTAMLQCLEAVEQNNPRLLAQIDASMFARKHESPLLVTKSQSLTALPSSTYTPPNSYAQHSYFGSFSSLHQSVPNNGSERRSTSFPLSGPPRKPQESRGHVSPAEDQTIQAPPVSVSALARDSPLTPNEMSSSTLTSPIEASWVSSQNDSPGDASEGPEYLAIGNLDPRGRTASCQSHSSNAESSSSNLFSSSSSQKPDSAASSLGDQEGGGESQLSSVLRRSSFSEGQTLTVTSGAKKSHIRSHSDTSIASRGAPESCNDKAKLRGPLPYSGQSSEVSTPSSLYMEYEGGRYLCSGEGMFRRPSEGQSLISYLSEQDFGSCADLEKENAHFSISESLIAAIELMKCNMMSQCLEEEEVEEEDSDREIQELKQKIRLRRQQIRTKNLLPMYQEAEHGSFRVTSSSSQFSSRDSAQLSDSGSADEVDEFEIQDADIRRNTASSSKSFVSSQSFSHCFLHSTSAEAVAMGLLKQFEGMQLPAASELEWLVPEHDAPQKLLPIPDSLPISPDDGQHADIYKLRIRVRGNLEWAPPRPQIIFNVHPAPTRKIAVAKQNYRCAGCGIRTDPDYIKRLRYCEYLGKYFCQCCHENAQMAIPSRVLRKWDFSKYYVSNFSKDLLIKIWNDPLFNVQDINSALYRKVKLLNQVRLLRVQLCHMKNMFKTCRLAKELLDSFDTVPGHLTEDLHLYSLNDLTATRKGELGPRLAELTRAGATHVERCMLCQAKGFICEFCQNEDDIIFPFELHKCRTCEECKACYHKACFKSGSCPRCERLQARREALARQSLESYLSDYEEEPAEALALEAAVLEAT
Take B1: the binding entry is “binds”.
